Measured data: PubChem BioAssay AID1224831 (NIAID, 2016)
Assay: 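Confirming genome-wide hits on LPS-triggered TNF-alpha induction with independent siRNA sequences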 (follow-up of hits). System: human THP-1 B5 monocytic leukaemia cells carrying a TNF promoter luciferase reporter, made macrophage-like with PMA. Reagents: single siRNA against human genes, 50 nM. Timing: about 68 h of knock-down, then 4 h LPS. Conditions: LPS (Salmonella minnesota, TLR-grade) at 10 ng/ml for 4 h; PMA 5 ng/ml present during knock-down. Measured: 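Firefly to renilla luciferase ratio of a TNF promoter reporter after 4 h LPS, scaled to plate median, turned into robust z-score, averaged over replicates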. Reading the numbers: TNF reporter z-score: higher = stronger LPS-induced TNF reporter signal; z-score, median over gene's siRNAs: higher = stronger TNF reporter signal across the gene's siRNAs. Call rule: 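Active when the replicate mean z-score is about -1 or lower, or about 1.5 or higher; lowered and raised TNF reporter signal both count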. Calls: active = changed TNF reporter (either direction); inactive = little change.
Here is a random part of about 3,500 reagents. 731 of all reagents (21%) were called active. 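Active means either lowered or raised reporter signal; the gene-median score did not drive the per-siRNA calls.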 Entries without a mark were called inactive. Reagents against one gene are numbered here.

| Target gene | reagent no. | TNF reporter z-score, replicate mean | z-score, median over gene's siRNAs |
| --- | --- | --- | --- |
| SLC6A14 | 1 | 0.33 | 0.28 |
| SLC6A14 | 2 | 1.5 (active) | 0.28 |
| SLC6A14 | 3 | 0.28 | 0.28 |
| SLC6A14 | 4 | -0.14 | 0.28 |
| SLC6A14 | 5 | -1.21 (active) | 0.28 |
| SLC6A14 | 6 | 0.28 | 0.28 |
| TTK | 1 | -0.56 | 0.23 |
| TTK | 2 | 0.07 | 0.23 |
| TTK | 3 | 0.54 | 0.23 |
| TTK | 4 | 0.8 | 0.23 |
| TTK | 5 | 0.39 | 0.23 |
| TTK | 6 | -0.39 | 0.23 |
| ZNF625 | 1 | -0.39 | 0.02 |
| ZNF625 | 2 | 0.17 | 0.02 |
| ZNF625 | 3 | -0.13 | 0.02 |
| ZNF625 | 4 | -0.15 | 0.02 |
| ZNF625 | 5 | 0.94 | 0.02 |
| ZNF625 | 6 | 0.7 | 0.02 |
| CHST12 | 1 | 0.89 | 0.045 |
| CHST12 | 2 | -0.65 | 0.045 |
| CHST12 | 3 | 0.74 | 0.045 |
| CHST12 | 4 | -0.76 | 0.045 |
| CHST12 | 5 | 2.93 (active) | 0.045 |
| CHST12 | 6 | -0.96 | 0.045 |
| KIT | 1 | -0.84 | 0.19 |
| KIT | 2 | 0.53 | 0.19 |
| KIT | 3 | 0.7 | 0.19 |
| KIT | 4 | -0.67 | 0.19 |
| KIT | 5 | 0.84 | 0.19 |
| KIT | 6 | -0.15 | 0.19 |
| CCDC121 | 1 | 0.23 | 0.36 |
| CCDC121 | 2 | -0.17 | 0.36 |
| CCDC121 | 3 | 1.63 (active) | 0.36 |
| CCDC121 | 4 | -0.29 | 0.36 |
| CCDC121 | 5 | 0.49 | 0.36 |
| CCDC121 | 6 | 1.33 | 0.36 |
| ALS2 | 1 | -1.01 (active) | -0.75 |
| ALS2 | 2 | -0.49 | -0.75 |
| ALS2 | 3 | -1.41 (active) | -0.75 |
| ALS2 | 4 | 0.33 | -0.75 |
| ALS2 | 5 | -1.01 (active) | -0.75 |
| ALS2 | 6 | -0.28 | -0.75 |
| EFS | 1 | 0.76 | -0.015 |
| EFS | 2 | -0.76 | -0.015 |
| EFS | 3 | 0.2 | -0.015 |
| EFS | 4 | 3.16 (active) | -0.015 |
| EFS | 5 | -0.23 | -0.015 |
| EFS | 6 | -0.65 | -0.015 |
| ATP6V0E1 | 1 | -0.45 | -0.6 |
| ATP6V0E1 | 2 | -1.04 (active) | -0.6 |
| ATP6V0E1 | 3 | -0.92 | -0.6 |
| ATP6V0E1 | 4 | -0.43 | -0.6 |
| ATP6V0E1 | 5 | -0.47 | -0.6 |
| ATP6V0E1 | 6 | -0.73 | -0.6 |
| MSRB3 | 1 | 0.87 | 0.705 |
| MSRB3 | 2 | 0.27 | 0.705 |
| MSRB3 | 3 | 0.54 | 0.705 |
| MSRB3 | 4 | 1.15 | 0.705 |
| MSRB3 | 5 | 1.75 (active) | 0.705 |
| MSRB3 | 6 | -0.35 | 0.705 |
| APPL1 | 1 | -1.28 (active) | -0.225 |
| APPL1 | 2 | 0.31 | -0.225 |
| APPL1 | 3 | -0.36 | -0.225 |
| APPL1 | 4 | -1.68 (active) | -0.225 |
| APPL1 | 5 | -0.09 | -0.225 |
| APPL1 | 6 | -0.08 | -0.225 |
| DGKQ | 1 | 1.91 (active) | 0.705 |
| DGKQ | 2 | 0.95 | 0.705 |
| DGKQ | 3 | -0.56 | 0.705 |
| DGKQ | 4 | 0.46 | 0.705 |
| DGKQ | 5 | 0.16 | 0.705 |
| DGKQ | 6 | 0.96 | 0.705 |
| ANXA9 | 1 | 0.05 | 0.035 |
| ANXA9 | 2 | 0.02 | 0.035 |
| ANXA9 | 3 | -0.11 | 0.035 |
| ANXA9 | 4 | 0.3 | 0.035 |
| ANXA9 | 5 | -0.31 | 0.035 |
| ANXA9 | 6 | 0.65 | 0.035 |
| HTRA2 | 1 | -0.4 | 0.155 |
| HTRA2 | 2 | 0.25 | 0.155 |
| HTRA2 | 3 | 0.06 | 0.155 |
| HTRA2 | 4 | -0.65 | 0.155 |
| HTRA2 | 5 | 1.2 | 0.155 |
| HTRA2 | 6 | 0.57 | 0.155 |

A stretch of the results above:
| Target gene | reagent no. | TNF reporter z-score, replicate mean | z-score, median over gene's siRNAs |
| --- | --- | --- | --- |
| EFS | 5 | -0.23 | -0.015 |
| EFS | 6 | -0.65 | -0.015 |
| ATP6V0E1 | 1 | -0.45 | -0.6 |
| ATP6V0E1 | 2 | -1.04 (active) | -0.6 |
| ATP6V0E1 | 3 | -0.92 | -0.6 |
| ATP6V0E1 | 4 | -0.43 | -0.6 |
| ATP6V0E1 | 5 | -0.47 | -0.6 |
| ATP6V0E1 | 6 | -0.73 | -0.6 |
| MSRB3 | 1 | 0.87 | 0.705 |
